# Results as given in PubChem BioAssay AID2517 (National Center for Advancing Translational Sciences (NCATS), 2010).
# Sequences of proteins named here, by UniProt entry; tags and fusion partners are left off.
# UniProt P27695, whole entry, looked up: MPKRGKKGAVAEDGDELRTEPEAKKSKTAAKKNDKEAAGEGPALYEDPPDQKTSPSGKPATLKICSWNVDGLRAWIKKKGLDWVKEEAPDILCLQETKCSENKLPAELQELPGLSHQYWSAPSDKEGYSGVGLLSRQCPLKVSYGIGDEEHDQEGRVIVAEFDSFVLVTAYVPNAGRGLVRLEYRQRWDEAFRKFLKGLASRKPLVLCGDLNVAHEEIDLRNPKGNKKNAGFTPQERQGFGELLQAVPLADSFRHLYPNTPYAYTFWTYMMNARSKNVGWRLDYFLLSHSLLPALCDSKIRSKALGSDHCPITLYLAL
# The campaign covered roughly 350,000 compounds. About 1,200 (0.34%) were called active. This list was built around the results that the source calls inconclusive (neither active nor inactive); the mix of calls is not that of the screen. Calls come from the whole dose curve; as a rule, active = well fitted inhibition curve with a large enough effect; inconclusive = small, poorly fitted or top-dose-only effect; inactive = no such curve, though single readings can be large or run the other way. Potencies of inconclusive entries are doubtful fits and often do not repeat.
# Molecular target: DNA repair nuclease/redox regulator APEX1 (Homo sapiens) (UniProt P27695)
# Assay: qHTS Assay for Inhibitors of the Human Apurinic/apyrimidinic Endonuclease 1 (APE1); note: nearly all actives have a fitted effect of over 55% in size;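 for activity change, negative = inhibition: plate controls were vehicle for no effect and reference inhibitor for full effect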
# Settings: recombinant APE1, TAMRA/BHQ-2 abasic DNA cleavage fluorescence; activity change, negative = inhibition: at 65.8 µM (top of the series)
# Method in brief: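 Kinetic fluorescence read (525 ex/598 em nm, three reads 60 s apart) of AP-site incision; signal = third minus first read. Enzyme 0.75 nM, dual-labelled THF duplex 50 nM, compound preincubation 15 min RT.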
# Potency is the fitted concentration of half-maximal effect.
Compound,Potency,"activity change, negative = inhibition"
COc1cc2oc(-c3ccc(O)cc3)cc(=O)c2c(OC)c1O,"inconclusive: 39.8 µM [inhibitor, single point]",
C[C@@H](O)C1NC(=O)[C@H](CCCCN)NC(=O)c2cc([N+](=O)[O-])cc(I)c2NCCC[C@@H](C(N)=O)NC1=O (stereo partly specified),"inconclusive: 3.55 µM [inhibitor, single point]",
Cc1cccc2cc(CN(Cc3nnnn3Cc3ccco3)C3CCCC3)c3nnnn3c12,"inconclusive: 31.6 µM [inhibitor, partial curve]",
CCc1c(C)nc2cc(-c3cccc(Br)c3)[nH]n2c1=O,"inconclusive: 37.7 µM [inhibitor, single point]",
Cc1ccc(C(=O)OC(C)C(=O)c2cc(C)c(C)cc2C)o1 (stereo unspecified),"inconclusive: 23.8 µM [inhibitor, partial curve]",
Cc1ccc(C(=O)OCC(=O)NCc2ccccc2)cc1S(=O)(=O)N1CCCCC1,,inactive: -2.03%
CC(=O)n1cc([C@@H]2C=C(C(=O)N3CCN(Cc4ccccc4)CC3)O[C@H](OCc3ccc(CO)cc3)C2)c2ccccc21,,inactive: -9.1%
CCOC(=O)C1CN(S(=O)(=O)c2ccc(Cl)cc2)c2cc(S(=O)(=O)CC)ccc2O1 (stereo unspecified),"inconclusive: 8.91 µM [inhibitor, partial curve, poor fit]",
CC(C)C1N(c2ccccc2)C(N)=C(C#N)C1(C#N)C#N (stereo unspecified),"inconclusive: 0.398 µM [inhibitor, full curve, poor fit]",
CCOc1cc(C(N)=O)cc(Br)c1OC,"inconclusive: 1.58 µM [inhibitor, partial curve]",
CCC(CC)=NNc1ccc(S(N)(=O)=O)cc1[N+](=O)[O-],,inactive: 1.99%
c1ccc2c(c1)Cc1cc3cc4c(cc3nc1-2)OCO4,"inconclusive: 15.8 µM [inhibitor, partial curve]",
C=CCN=c1scc(-c2ccco2)n1/N=C/c1ccc(O)c(O)c1O,"inconclusive: 2.82 µM [inhibitor, full curve]",
CCCNc1ncnc2c1cnn2-c1ccc(OC)cc1,"inconclusive: 31.6 µM [inhibitor, single point]",
COc1ccc(S(=O)(=O)N2CCOCC2)cc1NC(=O)c1cccc(-n2cccc2)c1,"inconclusive: 3.77 µM [inhibitor, partial curve]",
Cc1csc(NC(=O)CSCC(=O)O)c1-c1nc2ccccc2s1,,inactive: 1.58%
O=C(CSc1nnc(CNC(=O)c2ccccc2)o1)NCc1ccco1,,inactive: -29.8%
Cc1ccc(-c2c3c([nH]c(=S)c2C#N)CCCC3)o1,"inconclusive: 25.1 µM [inhibitor, single point]",
Cc1ccc(NC(=O)COc2ccc(/C=N\NC(=O)c3cccnc3)cc2)cc1C,"inconclusive: 21.2 µM [inhibitor, partial curve]",
O=C(CCCn1cc([N+](=O)[O-])cn1)NCc1ccccc1,"inconclusive: 10 µM [inhibitor, single point]",
CC(C)Cn1c(N)c(C=O)c(=O)n(C)c1=O,"inconclusive: 0.355 µM [inhibitor, full curve]",
Nc1ccc(C(=O)OCCc2ccccc2)cc1,,inactive: 1.81%

# Random excerpt: 2 records from the list, in no set order.
Compound,Potency,"activity change, negative = inhibition"
COc1ccc(S(=O)(=O)N2CCOCC2)cc1NC(=O)c1cccc(-n2cccc2)c1,"inconclusive: 3.77 µM [inhibitor, partial curve]",
C[C@@H](O)C1NC(=O)[C@H](CCCCN)NC(=O)c2cc([N+](=O)[O-])cc(I)c2NCCC[C@@H](C(N)=O)NC1=O (stereo partly specified),"inconclusive: 3.55 µM [inhibitor, single point]",

# Next part:

Compound,Potency,"activity change, negative = inhibition"
COc1ccc(/C=C/C(=O)OCCC(C)C)cc1,,inactive: 1.24%
Cc1cc(C)n2nc(SCC(=O)c3cc(C)n(-c4cc(C)on4)c3C)nc2n1,"inconclusive: 5.62 µM [inhibitor, single point]",
OC[C@@H]1OC(O)[C@@H](O)[C@H](O)[C@H]1O (stereo partly specified),,inactive: 3.47%
COc1ccc(CNCCS(=O)(=O)NN2CCOCC2)cc1,,inactive: -12.8%
CC(C)(C)C(=O)NC(C(N)=O)=C(Cl)Cl,,inactive: 2.25%
Cc1ccc(-c2nc(NCc3ccco3)n(C(=O)c3ccco3)n2)cc1,"inconclusive: 15.8 µM [inhibitor, partial curve]",
CCOc1cc(CNc2ccc(N(C)C)cc2)cc(Br)c1OCC(=O)NC(C)(C)C,,inactive: -8.88%
N#Cc1c(NC(=S)NC(=O)c2ccccc2)sc2c1CCCC2,"inconclusive: 8.91 µM [inhibitor, single point]",
CC1CCCC(C)N1S(=O)(=O)c1ccc(Cl)cc1 (stereo unspecified),,inactive: -3.82%
CC(=O)N1N=C(c2ccc3ccccc3c2)OC12CCCC2,"inconclusive: 3.16 µM [inhibitor, single point]",
CCSc1nnc(NC(=O)C2CC=CCC2C(=O)O)s1 (stereo unspecified),"inconclusive: 31.6 µM [inhibitor, partial curve]",
Cc1cc(=O)oc2cc(OC(=O)c3ccco3)ccc12,"inconclusive: 0.447 µM [inhibitor, full curve, poor fit]",
N#Cc1c(NC(=O)c2ccncc2)sc2c1CCC2,"inconclusive: 39.8 µM [inhibitor, single point]",
COc1ccc(-c2oc3c(CC=C(C)C)c(O[C@@H]4O[C@H](CO)[C@@H](O)[C@H](O)[C@H]4O)cc(O)c3c(=O)c2O[C@@H]2O[C@@H](C)[C@H](O)[C@@H](O)[C@H]2O)cc1,"inconclusive: 11.2 µM [inhibitor, partial curve, poor fit]",
CC(C)C/C(O)=C/c1nc2cc(Cl)ccc2oc1=O,"inconclusive: 0.0079 µM [inhibitor, full curve, poor fit]",
O=C(COC(=O)c1ccc(Cl)c(S(=O)(=O)N2CCCC2)c1)NC1CCCCC1,"inconclusive: 20 µM [inhibitor, single point]",
CN1CCN(C(=O)CN(c2cc(C(F)(F)F)ccc2Cl)S(C)(=O)=O)CC1,"inconclusive: 0.398 µM [inhibitor, full curve]",
CCCOc1ccc(C(=O)NC(=S)NNC(=O)c2c(-c3ccccc3)noc2C)cc1,,inactive: -4.16%
Cc1nnc(NC(=O)c2nc(S(=O)(=O)Cc3ccccc3C)ncc2Cl)s1,,inactive: -13.4%
Cc1ccc(NC(=O)CN2C(=O)S/C(=C\c3cc(C)n(-c4ccc(C(=O)O)cc4)c3C)C2=O)cc1,,inactive: 4.37%
C=C(NC(=O)C(=C)NC(=O)c1csc(C2=N[C@@H]3c4csc(n4)[C@H]4NC(=O)c5csc(n5)[C@H]([C@](C)(O)[C@@H](C)O)NC(=O)[C@H]5CSC(=N5)C(=CC)NC(=O)C([C@@H](C)O)NC(=O)c5csc(n5)[C@]3(CC2)NC(=O)[C@H](C)NC(=O)C(=C)NC(=O)[C@H](C)NC(=O)C([C@@H](C)CC)NC2C=Cc3c([C@H](C)O)cc(nc3C2O)C(=O)O[C@@H]4C)n1)C(N)=O (stereo partly specified),,inactive: 5.13% [at 21 µM]
O=C(O)c1ccc(COc2ccc3ccccc3c2)o1,"inconclusive: 2.24 µM [inhibitor, partial curve]",

Compound,Potency,"activity change, negative = inhibition"
O=C(O)c1cc(C(F)(F)F)nc2ccccc12,"inconclusive: 3.55 µM [inhibitor, single point]",
O=C(CN1CCN(c2ccc(O)cc2)CC1)Nc1cc(S(=O)(=O)N2CCCCC2)ccc1Cl,,inactive: -11.2%
COc1cccc(OC)c1-c1nn2c(-c3cc(-c4ccccc4)n[nH]3)nnc2s1,"inconclusive: 35.5 µM [inhibitor, single point]",
O=C(Cn1c(=O)n(Cc2ccco2)c(=O)c2c3c(sc21)CCCCC3)Nc1ccccc1,active: 11.2 µM,
Cc1cccc(/C=C/c2ccccc2)n1,"inconclusive: 44.7 µM [inhibitor, partial curve, poor fit]",
COc1ccc(C(=O)Nc2ccc3[nH]c(-c4cccc(OC)c4)cc(=O)c3c2)cc1,"inconclusive: 3.16 µM [inhibitor, single point]",
N/C(=N\OC(=O)C(c1ccccc1)c1ccccc1)c1ccncc1,"inconclusive: 0.0112 µM [inhibitor, full curve]",
O=C(N/N=C/c1cn(Cc2ccccc2)c2ccccc12)c1cc(O)cc(O)c1,active: 15 µM,
O=C(COC(=O)c1cc(=O)[nH]c2ccc(Br)cc12)c1ccccc1,"inconclusive: 44.7 µM [inhibitor, single point]",
COc1ccc(OCc2nn3c(-c4ccccn4)nnc3s2)cc1,"inconclusive: 5.01 µM [inhibitor, single point]",
CC(=O)n1nc(-c2cccnc2)nc1N,,inactive: -0.738%
Cc1ccc(S(=O)(=O)NC(C)C(=O)Nc2cccc([N+](=O)[O-])c2)cc1 (stereo unspecified),"inconclusive: 25.1 µM [inhibitor, single point]",
Cc1cc(C)c(O)c(-c2cc(C(=O)NCCc3ccc(S(N)(=O)=O)cc3)[nH]n2)c1,"inconclusive: 31.6 µM [inhibitor, single point]",
Nc1cccc(S(=O)(=O)NC2=NCCC2)c1,"inconclusive: 1.78 µM [inhibitor, full curve]",
O=C(Nc1nonc1-c1ccc(Cl)cc1)c1ccccc1,"inconclusive: 0.562 µM [inhibitor, full curve, poor fit]",
Cc1ccc2oc(-c3cccc(N)c3)nc2c1,"inconclusive: 31.6 µM [inhibitor, partial curve, poor fit]",
O=c1cc(-c2ccccc2)oc2cc(O[C@@H]3O[C@H](CO)[C@@H](O)[C@H](O)[C@H]3O)c(O)c(O)c12,"inconclusive: 28.2 µM [inhibitor, partial curve]",
CCN(CC)c1ccc(NC2CC(=O)N(CCc3ccc(OC)cc3)C2=O)cc1 (stereo unspecified),,inactive: -3.07%
CCN(CC)CCN1C(=O)c2cccc3cc(N)cc(c23)C1=O,"inconclusive: 17.8 µM [inhibitor, partial curve, poor fit]",
CC(C)NC(=O)[C@H](CSCc1ccccc1)N1Cc2ccccc2C1=O,"inconclusive: 7.94 µM [inhibitor, single point]",
O=C(Nc1scc(-c2ccccc2)c1C(=O)O)c1ccccc1Cl,,inactive: -2.3%
COc1ccc(S(=O)(=O)N(CCO)c2ccccc2CN(C)CC=Cc2ccc(Cl)cc2)cc1,"inconclusive: 39.8 µM [inhibitor, single point]",
